A short description of the experiment: qHTS Assay for Modulators of Lamin A Splicing. The settings on record: HeLa LMNA splicing GFP/RFP minigene ratio, 48 h. A digest of the protocol:
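S3 HeLa cells stably expressing lamin A-EGFP splicing minigene plus DsRed2, 600 cells/well, 48 h compound exposure at 37C. Laser-scanning cytometry; analysed as GFP (500-530 nm)/RFP (575-640 nm) total intensity ratio; 0.5% DMSO vehicle.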

[1] abbreviates: measured here: GFP splicing reporter channel.
The mark [2] stands for this setting: measured here: RFP viability control channel.

The other results are listed elsewhere or left out. These are further read-outs of the screen, such as a control signal, another cell line or another target. No call is given for them. The list favours compounds with an active or inconclusive main result. The note in brackets gives the kind of curve behind each potency; many fits are weak.

Broadly, the AC50 is the concentration giving half of the maximal activity seen.

For `COc1cccc(OC)c1OCc1cc(C2C3CCCC=C3C(C#N)=C(N)C2(C#N)C#N)c(C)cc1C` (configuration not stated), the AC50 by setting is: under setting [1], 35.5 µM [falling, single point]; under setting [2], 22.4 µM [falling, single point]. `CCOc1ccccc1NC(=O)C(OC(=O)c1ccc(N(C)C)cc1)c1ccccc1` (configuration not stated): under setting [2], the AC50 was 35.5 µM [rising, single point].

Turning to `CC1Cc2ccccc2N1C(=O)CSc1nnc(-c2cccc(Cl)c2)o1` (configuration not stated), the AC50 runs as follows: under setting [1], 0.141 µM [falling, full curve]; under setting [2], 0.0708 µM [falling, full curve, poor fit].

Regarding `CCOc1ccccc1OCCCOc1ccc([N+](=O)[O-])cc1Cl`, the AC50 was 15.8 µM [falling, single point] under setting [1] and 35.5 µM [falling, single point] under setting [2]. Regarding `Cc1ccc(NC(=S)NC(C)CCc2ccccc2)cc1C` (configuration not stated), the half-maximal activity concentration (AC50) under setting [1] is 11.2 µM [rising, single point] and the AC50 under setting [2] is 22.4 µM [rising, single point]. As to `Clc1cccc2sc(N3CCN(c4ccccc4)CC3)nc12`, the concentration at half-maximal activity (AC50) under setting [2] is 28.2 µM [rising, single point]. On the same count and under the same terms, the figure for `Clc1ccc(OCc2nc(-c3ccncc3)no2)cc1` is 31.6 µM [rising, single point]; for `Cc1ccc(C(=O)NCC(=O)OC(C)C(=O)Nc2ccc(N(C)C)cc2)cc1C` (configuration not stated) it is 1.26 µM [falling, partial curve, poor fit]. For `C[C@@H]1CCC[C@H](C)N1NC(=O)c1ccc(Cl)c(S(N)(=O)=O)c1`, the half-maximal activity concentration (AC50) under setting [1] was 0.251 µM [falling, full curve] and the concentration at half-maximal activity (AC50) under setting [2] was 0.316 µM [falling, full curve, poor fit]. For the compound `CCc1ccc(C(=O)/C=C/c2cnn(C)c2C)s1`, the concentration at half-maximal activity (AC50) by setting is: under setting [1], 0.0224 µM [falling, full curve, poor fit]; under setting [2], 0.02 µM [falling, full curve, poor fit].

As to `O=C(N1CCN(c2ccccc2)CC1)C12CC3CC(CC(C3)C1)C2`, the half-maximal activity concentration (AC50) was 15.8 µM [rising, single point] under setting [1] and 35.5 µM [rising, single point] under setting [2]. Take `CSC1=NSC2=NC(=O)/C(=C/c3coc4ccc(O)cc4c3=O)C(=N)N12`: the concentration at half-maximal activity (AC50) under setting [2] was 0.0282 µM [rising, full curve, poor fit]. With `Cc1ccc2c(c1)Oc1ccc(NC(=O)CCCl)cc1C(=O)N2`, the AC50 reads like this: under setting [1], 0.0891 µM [falling, full curve]; under setting [2], 0.1 µM [falling, full curve]. As for `COc1cccc2sc(Nc3nc(C)c(C(C)=O)s3)nc12`, the AC50 under setting [2] is 20 µM [rising, single point]. For `CCOC(=O)c1c(C)oc2ccc(OCc3cc(C(=O)OC)oc3C)cc12`, the AC50 under setting [2] was 17.8 µM [rising, single point].

Consider `Cc1nn(CCCC(=O)Nc2cc(Oc3ccc(F)cc3)cc([N+](=O)[O-])c2)c(C)c1[N+](=O)[O-]`, for which, under setting [2], the AC50 was 15.8 µM [rising, single point]. For `COC(=O)c1nn(-c2nc(-c3ccc(OC)c(OC)c3)cc(C(F)(F)F)n2)cc1[N+](=O)[O-]`, the AC50 under setting [1] is 4.47 µM [falling, full curve, poor fit].

For `COc1ccccc1N1CCN(C(=O)C2CCCN(S(=O)(=O)c3ccc4c(c3)oc(=O)n4C)C2)CC1` (configuration not stated), the concentration at half-maximal activity (AC50) reads like this: under setting [1], 6.31 µM [falling, partial curve, poor fit]; under setting [2], 0.891 µM [falling, full curve]. Take `COC(=O)c1sccc1S(=O)(=O)N(CC(=O)NCc1ccccc1)c1ccc(C)cc1`: the AC50 under setting [1] is 0.02 µM [falling, full curve, poor fit]. `COc1ccc(-c2c(C)sc(NC(=O)c3ccnn3C)c2C#N)cc1`: the AC50 under setting [2] is 6.31 µM [rising, partial curve]. In the case of `COc1ccc2c(c1)c(CC(=O)O)c(C)n2Cc1ccc(F)cc1`, the AC50 is 0.126 µM [rising, full curve, poor fit] under setting [1] and 11.2 µM [rising, partial curve, poor fit] under setting [2]. Regarding `CCc1c(C#N)c(SCCC(=O)Nc2cccc(OC)c2)nc2c1C(=O)CC(C)(C)C2`, the AC50 under setting [2] was 35.5 µM [rising, single point].

Take `Cc1ccc(S(=O)(=O)c2nc(Nc3nccs3)sc2Cl)cc1`: the AC50 under setting [2] is 5.62 µM [rising, single point]. For `Cc1ccc(NC(=O)c2ccc([N+](=O)[O-])o2)cc1C`, the AC50 under setting [1] was 2 µM [falling, full curve] and the AC50 under setting [2] is 8.91 µM [falling, partial curve]. In the case of `Cc1cc(C(=O)COc2cccc(-n3cnnn3)c2)c(C)n1-c1ccccc1`, the AC50 runs as follows: under setting [1], 14.1 µM [rising, partial curve]; under setting [2], 12.6 µM [rising, partial curve]. Consider `CCCc1cc(=O)[nH]c(SCC(=O)c2cc(C)n(CCOC)c2C)n1`, for which the AC50 under setting [1] is 11.2 µM [rising, partial curve]. Consider `CCCCNC(=O)C1CCCN(S(=O)(=O)c2ccc(S(=O)(=O)NCC(C)C)cc2)C1` (configuration not stated), for which the AC50 under setting [2] is 35.5 µM [rising, single point]. As for `O=C(N/N=C/c1cc(Cl)cc([N+](=O)[O-])c1O)C1CC1`, under setting [2], the AC50 was 25.1 µM [falling, partial curve]. `O=C(Nc1ccc2c(c1)OCO2)C1CCN(S(=O)(=O)c2ccc3c(c2)OCCO3)CC1`: the half-maximal activity concentration (AC50) under setting [2] was 17.8 µM [rising, partial curve]. As to `COc1cccc(CN2CCNC(=O)C2CC(=O)NCCn2cccn2)c1OC` (configuration not stated), the AC50 under setting [2] was 0.01 µM [falling, full curve, poor fit].

Turning to `CCn1c(NCc2ccc(N(C)C)cc2)nc2ccccc21`, the AC50 under setting [2] was 35.5 µM [rising, single point].

Consider `O=C(O)/C=C/C(=O)NCc1ccccc1`, for which, under setting [2], the AC50 was 20 µM [falling, partial curve, poor fit]. On to `COc1ccccc1Nc1nc(-c2sc(NC(=O)C(C)(C)C)nc2C)cs1`, for which the half-maximal activity concentration (AC50) under setting [2] is 22.4 µM [rising, partial curve]. For `CSc1cccc(NC(=O)C(c2ccccc2)N2Cc3ccccc3C2=O)c1` (configuration not stated), the AC50 is 20 µM [falling, partial curve, poor fit] under setting [1] and 35.5 µM [falling, partial curve, poor fit] under setting [2]. Turning to `Cc1ccc(NC(=O)CSc2nc3ccc(NC(=O)c4ccco4)cc3s2)c(C)c1`, the AC50 reads like this: under setting [1], 14.1 µM [falling, partial curve, poor fit]; under setting [2], 35.5 µM [falling, partial curve, poor fit]. Take `COc1ccc([N+](=O)[O-])cc1NC(=O)c1ccc(CN(c2ccccc2)S(C)(=O)=O)cc1`: under setting [2], the AC50 was 0.0355 µM [falling, full curve, poor fit]. For the compound `Cc1[nH]nc2c1C(c1cn[nH]c1-c1ccc(F)cc1)C(C#N)=C(N)O2` (configuration not stated), the half-maximal activity concentration (AC50) is 14.1 µM [rising, single point] under setting [1] and 14.1 µM [rising, partial curve, poor fit] under setting [2]. For the compound `O=C(c1ccc(Cl)cc1)N1CCC(O)(CSc2ccccc2)CC1`, the AC50 under setting [2] was 17.8 µM [rising, single point]. Same read-out and setting: to `Cc1cc(SCC(=O)N/N=C/c2ccc(O)cc2O)c(C)cc1Br` belongs 12.6 µM [rising, partial curve]. On the same count and under the same terms, the figure for `O=S(=O)(Nc1ccc(N2CCCCC2)cc1)c1ccccc1` is 35.5 µM [rising, single point]. As for `O=C(COc1cccc2ccccc12)NNC(=O)Nc1ccccc1`, the AC50 is, setting by setting: under setting [1], 22.4 µM [falling, single point]; under setting [2], 12.6 µM [falling, partial curve]. Consider `CC(C)Cc1cc(C(=O)N2CCN(C(c3ccccc3)c3ccccc3)CC2)no1`, for which, under setting [2], the half-maximal activity concentration (AC50) is 35.5 µM [rising, single point]. In the case of `COc1cc(C(=O)O/N=C2\C=CC(=O)C(C)=C2)cc(OC)c1OC`, the AC50 under setting [1] was 12.6 µM [falling, partial curve] and the AC50 under setting [2] is 14.1 µM [falling, partial curve]. Turning to `CCCOC(=O)c1ccc(NS(=O)(=O)c2cccs2)cc1`, under setting [2], the half-maximal activity concentration (AC50) was 17.8 µM [rising, single point].

Consider `COCCN1C(=O)N[C@@H](c2ccc(Br)cc2)C(C(C)=O)=C1C`, for which the AC50 under setting [1] was 5.62 µM [falling, single point].

As to `CCCOc1cccc(-c2nc3ccccc3c(=O)o2)c1`, under setting [1], the AC50 is 35.5 µM [falling, single point]. Same read-out and setting: to `O=C1CC(N2CCSCC2)C(=O)N1c1ccccc1` (configuration not stated) belongs 5.62 µM [rising, single point].

As for `CN1/C(=C\C(=S)NC(=O)c2ccccc2Cl)C(C)(C)c2ccccc21`, the AC50 is 11.2 µM [rising, single point] under setting [1] and 25.1 µM [rising, single point] under setting [2].

For the compound `Nc1ccc(S(=O)(=O)Nc2nccs2)cc1`, the AC50 by setting is: under setting [1], 35.5 µM [falling, single point]; under setting [2], 35.5 µM [falling, partial curve, poor fit]. On to `O=C(COC(=O)/C(=C/c1cccs1)c1cccs1)NCc1ccccc1Cl`, for which the AC50 under setting [2] was 11.2 µM [rising, single point]. In the case of `Cc1ccc2cc3c(N)[nH]nc3nc2c1`, the AC50 by setting is: under setting [1], 3.98 µM [falling, full curve, poor fit]; under setting [2], 10 µM [falling, single point].

Regarding `Cc1ccc(NC(=O)COC(=O)c2ccccc2-c2nc3ccccc3s2)c(C)c1`, the AC50 is 35.5 µM [rising, single point] under setting [1] and 35.5 µM [rising, single point] under setting [2]. As to `COc1ccccc1-n1cnc2cc(NS(=O)(=O)c3ccc(Br)cc3)ccc21`, the AC50 reads like this: under setting [1], 28.2 µM [rising, single point]; under setting [2], 22.4 µM [rising, single point].

Turning to `Cc1ccc(C)c(N2CCN(C(=O)CCn3c(=O)[nH]c4ccccc4c3=O)CC2)c1`, the AC50 under setting [2] is 0.631 µM [falling, single point].

Turning to `Cc1cccc(OCCSc2nc3ccc(NC(=O)COc4ccccc4F)cc3s2)c1`, under setting [1], the AC50 is 1 µM [falling, full curve, poor fit].

(Values after PubChem BioAssay AID1487 (National Center for Advancing Translational Sciences (NCATS), 2009).)
